# Out of some 400,000 compounds screened, about 5,500 (1.4%) were called active. The shares of active, inactive and inconclusive entries below differ from those in the screen. The call rests on the fitted dose curve; in most records, active means well fitted cell-killing curve with a large enough effect; inconclusive means small, poorly fitted or top-dose-only effect, or effect the other way; inactive means flat fitted curve, though single readings scatter. Potencies of inconclusive entries are doubtful fits and often do not repeat.
# Assay: qHTS assay for MDR1-selective chemotherapeutics: Primary screen using the parental adenocarcinoma cell KB-3-1; further: nearly all actives have a fitted effect of over 60% in size
# Settings: KB-3-1 viability, CellTiter-Glo ATP luminescence, 72 h; activity change, negative = cytotoxic: at 46.1 µM (top of the series)
# Method in brief: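 Cells are dispensed, compounds pinned in, plates held at 37 °C for 72 h, then CellTiter-Glo is added and luminescence read after 10 minutes. Cell line: parental KB-3-1 in phenol-red-free DMEM, 10% FBS.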
# On the % scale 0 is the no-effect control and ±100 the full control effect; potency means the concentration at half of the fitted maximal effect.
SMILES,Potency,"activity change, negative = cytotoxic"
Cc1ccc(NC(=O)c2ccc(Cl)c(S(=O)(=O)N3CCc4ccccc43)c2)nc1,"inconclusive: 16.4 µM [cytotoxic, single point]",
CCCCNC(=O)c1ccc(-c2nc(CN3CCc4ccccc43)c(C)o2)cc1,"inconclusive: 5.8 µM [cytotoxic, full curve]",
CCc1ccccc1NC(=O)CN(c1ccc(OC)cc1OC)S(=O)(=O)c1ccccc1,"inconclusive: 29.1 µM [cytotoxic, single point]",
Cc1ccc(Nc2c3c(nc4ccccc24)CCC3)cc1F,active: 20.6 µM,
CCc1ccc(-c2nc3cc(NC(=O)c4ccc(F)cc4)ccc3o2)cc1,inactive,
O=C(NCc1cccs1)C1CC(c2ccccc2O)=NO1 (stereo not drawn),active: 16.4 µM,
CN(C)c1ccc(NC(=O)/C=C/c2c(Cl)cccc2Cl)cc1,"inconclusive: 29.1 µM [cytotoxic, single point]",
CCCCc1nc2n[nH]c(N)c2c2c1CCC2,"inconclusive: 32.6 µM [cytotoxic, partial curve, poor fit]",
N#Cc1cccnc1N1CCN(C(=O)c2cccc3c2C(=O)c2ccc(Cl)cc2S3(=O)=O)CC1,"inconclusive: 29.1 µM [cytotoxic, single point]",
CN1CCN(CC(=O)N2CCn3c4c(c5cc(C6CCCCC6)ccc53)CCCC42)CC1 (stereo not drawn),"inconclusive: 29.1 µM [cytotoxic, single point]",
CCNC(=O)n1cc(-n2cncn2)c(-c2ccccc2)n1,inactive,
O=C(Nc1ccccc1)C1=C[C@H](c2ccc3c(c2)OCO3)C[C@H](OCc2ccc(CO)cc2)O1,inactive,
COc1ccccc1CNC(=O)CSc1ncc(C(=O)Nc2ccccc2)c(=O)n1C,,inconclusive: 32%
Cc1cn2c(=O)cc(COC(=O)COc3ccc(F)cc3)nc2s1,inactive,
CC(C)c1ccc(-c2nc(N3CCCC3)nc3n[nH]c(N)c23)cc1,"inconclusive: 20.6 µM [cytotoxic, partial curve, poor fit]",
COc1ccc(-c2csc(=NCCO)n2-c2ccccc2)cc1,"inconclusive: 0.0082 µM [cytotoxic, full curve, poor fit]",
Cc1ccc(S(=O)(=O)/N=C2/NC(=O)/C(=C\c3ccco3)S2)cc1,"inconclusive: 6.51 µM [cytotoxic, partial curve]",
Cc1nn(CC(=O)c2ccc(Cl)s2)c(C)c1[N+](=O)[O-],"inconclusive: 20.6 µM [rising, single point]",
COC(=O)C1=CN(c2ccc(OC)cc2)C=C(C(=O)OC)C1c1ccc(C)c([N+](=O)[O-])c1,"inconclusive: 23.1 µM [cytotoxic, single point]",
Clc1ccc2c(NCc3ccccc3)ccnc2c1,"inconclusive: 29.1 µM [cytotoxic, single point]",
CCOC(=O)c1cnn(-c2cccc(Cl)c2)c1C1CCN(C(=O)OC(C)(C)C)CC1,"inconclusive: 29.1 µM [cytotoxic, single point]",
C=CCn1c(SCC(N)=O)nnc1-c1cnccn1,"inconclusive: 2.59 µM [rising, full curve, poor fit]",

SMILES,Potency,"activity change, negative = cytotoxic"
CC1=NN(c2ccccc2)C(=O)C1N=Nc1ccc(N)cc1 (stereo not drawn),"inconclusive: 25.9 µM [cytotoxic, single point]",
CCNC(=S)Nc1ccc2c(c1)c(=O)n(C)n2-c1ccc(C(C)(C)C)cc1,"inconclusive: 18.4 µM [cytotoxic, single point]",
CC1CCN(C(=O)c2ccc(CSc3nc4ccncc4n3Cc3ccc(F)cc3)cc2)CC1,"inconclusive: 16.4 µM [cytotoxic, single point]",
CCOc1ccc(-c2nnn(CC(=O)NCc3ccccc3)n2)cc1,active: 6.51 µM,
CN(Cc1cc(Cl)cc(Cl)c1)[C@H]1C[C@H]2c3[nH]c4ccccc4c3CCN2C(=O)[C@H]1CO,"inconclusive: 25.9 µM [cytotoxic, single point]",
Cc1nc(Sc2nnnn2C)c2c3c(sc2n1)CCC3,active: 3.26 µM,
COC(=O)[C@@]12C[C@@H](CC(=O)NCc3ccccc3)C(=O)N(Cc3ccc4c(c3)OCO4)C1=CCC(C)(C)C2,"inconclusive: 29.1 µM [cytotoxic, single point]",
Cc1cc(NS(=O)(=O)c2ccc(NC(=S)NC(=O)c3ccc(Br)cc3)cc2)no1,inactive,
COC(=O)c1sc2cccc(F)c2c1S(=O)(=O)NCc1ccc(F)cc1,inactive,
C#Cc1ccc2c(c1)COc1c3ccccc3nn1-2,"inconclusive: 29.1 µM [cytotoxic, single point]",
Cc1ccc(-n2c(SCCN)nnc2-c2cccc(C)c2)cc1,"inconclusive: 20.6 µM [cytotoxic, single point]",
COC(C(=O)Nc1ccnn1C1CCN(C(=O)c2ccc(C=O)cc2)CC1)c1ccccc1 (stereo not drawn),inactive,
CCOC(=O)c1c(-c2ccc(C)o2)csc1NC(=S)NC(=O)c1ccccc1Br,"inconclusive: 29.1 µM [cytotoxic, single point]",
CC(C)NC(=S)N=Nc1c(O)[nH]c2ccc([N+](=O)[O-])cc12,"inconclusive: 29.1 µM [cytotoxic, single point]",
COc1ccc(CNC(=O)Cc2nn(C)c(=O)c3ccccc23)cc1,"inconclusive: 5.8 µM [cytotoxic, full curve]",
COc1cc(-c2ccc3oc(-c4ccsc4)cc(=O)c3c2)cc(OC)c1OC,"inconclusive: 18.4 µM [cytotoxic, single point]",
c1ccc2[nH]c3cc4ncnc4cc3nc2c1,"inconclusive: 16.4 µM [cytotoxic, single point]",
CCOC(=O)c1ccccc1NC(=O)CN(c1cc(C(F)(F)F)ccc1Cl)S(C)(=O)=O,inactive,
O=S(=O)(c1ccccc1)n1nc(-c2ccc(Cl)cc2)nc1NCc1ccc(F)cc1,"inconclusive: 29.1 µM [cytotoxic, single point]",
N=C1C(c2nc3ccccc3[nH]2)=C(O)CN1c1ccccc1,active: 23.1 µM,
CC1(C)CN(c2ccc(Br)cc2)C(=O)[C@H]1CC(=O)Nc1ccccc1,"inconclusive: 11.6 µM [cytotoxic, partial curve, poor fit]",
